Consider one substance from article PMC5542241.

Amino acid sequences for entries named in this document (tags omitted).
UniProt P21796: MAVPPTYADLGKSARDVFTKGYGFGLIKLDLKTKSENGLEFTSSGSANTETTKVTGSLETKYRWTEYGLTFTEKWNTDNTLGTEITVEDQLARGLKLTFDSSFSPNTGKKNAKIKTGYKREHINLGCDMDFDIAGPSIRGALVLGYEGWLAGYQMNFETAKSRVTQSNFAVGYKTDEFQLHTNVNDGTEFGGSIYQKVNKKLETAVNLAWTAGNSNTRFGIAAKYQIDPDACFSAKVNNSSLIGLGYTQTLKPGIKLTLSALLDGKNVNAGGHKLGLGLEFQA

Results are given in words; binding and its absence hold for the method and conditions named. In cells and extracts the contact can be indirect.

The assay deals with T1, hexokinase 2 (human (endogenous in LM3 and BEL-7402 HCC cells)) (UniProt P52789).
T1 sequence: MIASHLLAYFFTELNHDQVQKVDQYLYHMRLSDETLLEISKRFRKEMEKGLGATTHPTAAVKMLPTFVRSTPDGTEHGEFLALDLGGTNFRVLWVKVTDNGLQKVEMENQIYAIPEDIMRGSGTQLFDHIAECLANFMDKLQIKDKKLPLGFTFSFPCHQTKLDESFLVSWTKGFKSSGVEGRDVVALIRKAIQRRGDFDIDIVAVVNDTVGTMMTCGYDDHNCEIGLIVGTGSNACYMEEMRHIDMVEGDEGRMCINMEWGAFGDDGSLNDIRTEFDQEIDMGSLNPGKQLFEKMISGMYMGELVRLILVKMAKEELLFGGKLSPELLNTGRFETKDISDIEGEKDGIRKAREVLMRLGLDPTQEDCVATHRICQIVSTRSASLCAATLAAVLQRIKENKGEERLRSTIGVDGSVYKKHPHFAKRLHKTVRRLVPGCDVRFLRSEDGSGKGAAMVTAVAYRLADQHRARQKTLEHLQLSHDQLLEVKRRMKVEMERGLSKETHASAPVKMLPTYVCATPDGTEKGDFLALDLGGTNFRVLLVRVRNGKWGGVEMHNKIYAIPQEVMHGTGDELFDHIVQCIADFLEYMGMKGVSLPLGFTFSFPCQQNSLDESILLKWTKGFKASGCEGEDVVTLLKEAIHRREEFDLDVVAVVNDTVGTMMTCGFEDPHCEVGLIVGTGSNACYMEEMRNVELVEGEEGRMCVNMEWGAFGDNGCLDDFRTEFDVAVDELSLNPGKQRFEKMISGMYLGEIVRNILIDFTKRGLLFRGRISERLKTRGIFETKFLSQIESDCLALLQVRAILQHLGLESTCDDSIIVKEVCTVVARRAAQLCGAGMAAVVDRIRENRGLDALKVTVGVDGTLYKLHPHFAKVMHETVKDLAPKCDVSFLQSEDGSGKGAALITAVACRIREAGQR
The assay is described as follows: co-IP; Pierce Co-Immunoprecipitation kit, HK2 or VDAC1 antibody cross-linked to amino link plus coupling resin; lysate of HCC cells after methyl jasmonate (MJ) treatment; immunoblot of HK2 and VDAC1.

As for “voltage dependent anion channel 1 (from UniProt P21796 1-283)”, the binding entry is reported as “no binding (condition: after MJ treatment of the cells)”.
